Test results reported in PubChem BioAssay AID493014 (National Center for Advancing Translational Sciences (NCATS), 2011).
Among all 340,000 compounds or so, about 170 (0.05%) were called active. Inconclusive results, whose numbers are uncertain, are shown with a selection of clear calls. The call rests on the fitted dose curve; in most records, active means well fitted inhibition curve with a large enough effect in the signal ratio, with a control signal flat (not every such curve was filed as active); inconclusive means small, poorly fitted or top-dose-only effect, or effect the other way, or a change in a side signal; inactive means flat fitted curve, though single readings scatter; the % refers to the signal ratio. Potencies of inconclusive entries are doubtful fits and often do not repeat.

Assay: qHTS Assay to Find Inhibitors of Chronic Active B-Cell Receptor Signaling;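 on activity change, negative = inhibition: plate controls were basal doxycycline-induced cells for no effect and cells given 10 µM MG132 for full effect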
Details: ABC-DLBCL IkBa-CBG/CBR reporter, luminescence ratio (green luciferase fused to IkBa over red control in TMD8 lymphoma cells), 4 h; activity change, negative = inhibition: at 46.1 µM (top of the series) unless noted
In short: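 Compounds up to 46 uM were incubated four hours with TMD8 cells whose green CBG68 luciferase is fused to IkappaBalpha; red CBR luminescence normalised the signal, and concentration-effect curves were fitted to fusion, red and ratio data.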
Potency means the concentration at half of the fitted maximal effect.

| SMILES | activity change, negative = inhibition | Potency |
| --- | --- | --- |
| CN1/C(=C\C(=S)Nc2ccccc2)C(C)(C)c2ccccc21 | inactive: -0.751% |  |
| CCOc1cc(/C=N/O)cc(Br)c1OCC | inactive: 4.05% |  |
| Cn1c(NN)nc2ccccc2c1=O | inconclusive: -29.7% |  |
| CC(C)NC(=O)N(C)C[C@@H]1Oc2c(NC(=O)C3CCOCC3)cccc2C(=O)N([C@@H](C)CO)C[C@H]1C | inconclusive: 0.235% |  |
| CCOC(=O)CSc1nc2ccc(N3CCOCC3)cc2c(=O)n1Cc1ccccc1 | inactive: -9.76% |  |
| CO/N=C/C=C1/N(C)c2ccccc2C1(C)C | inactive: 2.34% |  |
| Cc1[nH]c(=O)[nH]c(=O)c1Sc1ccccc1[N+](=O)[O-] | inactive: -8.96% |  |
| COCCNC(=O)CSc1c2c(nc3ccc(Cl)cc13)CCCC2 |  | inconclusive: 5.62 µM [falling, single point] |
| CCOC(CCc1c(C)nc(NC(C)=O)[nH]c1=O)OCC | inconclusive: 0.168% |  |
| O=c1[nH]nc(Sc2ncnc3sccc23)n1CCc1ccccc1 |  | inconclusive: 10 µM [falling, partial curve] |
| COc1ccc(N2CCN(c3ccc([N+](=O)[O-])nc3)CC2)cc1 | inconclusive: 11.3% |  |
| COc1cccc(C(=O)CSc2nnc(COc3cccc4cccnc34)o2)c1 | inconclusive: 0.882% |  |
| CC(C)c1ccc(NC(=O)c2ccc3c(c2)C(=O)N(Cc2cccnc2)C3=O)cc1 | inactive: -1.39% |  |
| CCCc1nc(SCC(=O)c2ccc(OC)cc2)c2ccccc2n1 | inconclusive: 11% |  |
| Fc1ccc(-c2csc(Nc3ccccn3)n2)c(F)c1 |  | inconclusive: 25.1 µM [falling, partial curve] |
| COCCCNC(=O)C1c2ccccc2Oc2ccccc21 | inconclusive: 2.07% |  |
| COCC1CCCN(C(=O)c2ccc3oc(Cc4ccc(Cl)cc4)nc3c2)C1 (centres undefined) | inactive: 8.74% |  |
| Cc1ccc(N2CCC(N3CCN(C4CCCCC4)C(CCO)C3)CC2)cc1 (centres undefined) | inconclusive: -4.1% |  |
| COc1ccc(-c2cc(C(=O)N3CCCc4ccccc43)no2)cc1OC |  | inconclusive: 17.8 µM [falling, partial curve] |
| c1ccc(-c2ccccc2OCCOCCN2CCCCC2)cc1 | inconclusive: -12.5% |  |
| COc1ccc(CCC(=O)N2CCN(c3cccc(C)c3C)CC2)cc1 | inactive: -0.512% |  |
| CC(=O)C1=C(O)C(=O)N(Cc2ccccc2)C1c1ccc(Br)cc1 (centres undefined) | inconclusive: 4.87% |  |
| Cc1nn(C)cc1C1C2=C(CC(C)(C)CC2=O)N(c2ccccc2)C2=C1C(=O)CC(C)(C)C2 | inactive: -3.84% |  |
| Cc1cccc(NC(=O)c2cc(-c3c(C)cc(C)cc3O)n[nH]2)c1 |  | inconclusive: 35.5 µM [falling, single point] |

Single records, from the list above:
`COc1cccc(C(=O)CSc2nnc(COc3cccc4cccnc34)o2)c1` in the list: activity change, negative = inhibition: inconclusive: 0.882%
`COc1ccc(-c2cc(C(=O)N3CCCc4ccccc43)no2)cc1OC` in the list: Potency: inconclusive: 17.8 µM [falling, partial curve]
